Source: patent EP0058890A1, “Antithrombotic compounds” (THE WELLCOME FOUNDATION LIMITED, priority 1981, dated 1982)

Experiments:
[1] = test system: platelets; assay: Ex vivo platelet aggregation after oral dosing, arachidonate and collagen (method of Born), guinea pig; assay type: in vivo; settings: platelets taken 24 hours after dosing respond normally to aggregation stimuli
Description: (§1) b. Ex vivo studies: The aggregation of platelets taken from animals dosed by the oral route with Compound II is inhibited when tested with arachidonate and collagen by the method of Born ((1962) Nature 194, 927, 929). The dose required to inhibit aggregation rate by 50% (ED50) at 1 hour was 5 mg/kg and 10 mg/kg in the guinea pig and rat, respectively. By comparison, the ED50 for aspirin in the guinea pig was 30 mg/kg, while the ED50 for aspirin in the rat was 10 mg/kg. The ED50 for indomethacin was 10 mg/kg and 5 mg/kg in the guinea pig and rat, respectively. In the dog, 10 mg/kg p.o. was an ED50 for as long as 6 hr.

[2] = test system: platelets; assay: Ex vivo platelet aggregation after oral dosing, arachidonate and collagen (method of Born), rat; assay type: in vivo; settings: platelets taken 24 hours after dosing respond normally to aggregation stimuli
Description: as §1

Row | Structure (SMILES) | reversibility of inhibition of aggregation [1] | reversibility of inhibition of aggregation [2]
1 | CC(=O)Oc1ccccc1C(=O)O [aspirin] | unlike aspirin | unlike aspirin
2 | COc1ccc2c(c1)c(CC(=O)O)c(C)n2C(=O)c1ccc(Cl)cc1 [indomethacin] | reversible | reversible
